PubChem BioAssay AID1159578 | Peter MacCallum Cancer Centre, 2015
Test: 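Knock-downs that alter how fast lymphatic endothelial cells migrate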 (primary screen). Cells: human lymphatic endothelial cells. Reagents: siRNA pool against human genes, 40 nM. Duration: 48 h after transfection. Measured: 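Cells stained with dye and imaged after a scratch; covered wound area and nuclei counted, duplicates averaged, migration set against mock wells and turned into a robust z-score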. Reading the numbers: migration robust z-score: higher = faster migration into the scratch; nuclei per well: higher = more cells in the well. Rule for the call: 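Pools averaging fewer than 3300 nuclei are never called; remaining pools count as changed when migration robust z lies outside -2 to 2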. Meaning of the calls: active = migration changed; inactive = no migration change, or too few cells.
Here is one part, drawn at random, of about 18,000 reagents tested. About 1,030 of them (5.7%) count as active. 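Inactive calls also include pools with fewer than 3300 nuclei, whose migration was not assessed.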 Raw values vary from plate to plate and are shown uncorrected. Not all columns of the deposit are shown.

With VNN3P, how do the results read?
migration robust z-score: -0.21; migration class with cell-count check: migration z between -2 and 2; enough cells; nuclei per well, duplicate mean: 4866; Outcome: inactive

What is on record for PXN?
migration robust z-score: -0.99; migration class with cell-count check: migration z between -2 and 2; enough cells; nuclei per well, duplicate mean: 6110; Outcome: inactive

How did the screen score HSPBAP1?
migration robust z-score: -0.03; migration class with cell-count check: migration z between -2 and 2; enough cells; nuclei per well, duplicate mean: 5744; Outcome: inactive

How did the screen score EFNA5?
migration robust z-score: -0.06; migration class with cell-count check: migration z between -2 and 2; enough cells; nuclei per well, duplicate mean: 4867; Outcome: inactive

For GORAB, what was measured?
migration robust z-score: -0.3; migration class with cell-count check: migration z between -2 and 2; enough cells; nuclei per well, duplicate mean: 5184; Outcome: inactive

With TMEM182, what does the deposit list?
migration robust z-score: 0.88; migration class with cell-count check: migration z between -2 and 2; enough cells; nuclei per well, duplicate mean: 6107; Outcome: inactive

What did the screen give for PDLIM4?
migration robust z-score: 0.72; migration class with cell-count check: migration z between -2 and 2; enough cells; nuclei per well, duplicate mean: 6965; Outcome: inactive

For KRTAP3-2, what does the deposit list?
migration robust z-score: -1.14; migration class with cell-count check: migration z between -2 and 2; enough cells; nuclei per well, duplicate mean: 5954; Outcome: inactive

For EIF2B4, what was measured?
migration robust z-score: 0.83; migration class with cell-count check: migration z between -2 and 2; enough cells; nuclei per well, duplicate mean: 6025; Outcome: inactive

For DIXDC1, what does the deposit list?
migration robust z-score: -1.21; migration class with cell-count check: migration z between -2 and 2; enough cells; nuclei per well, duplicate mean: 4768; Outcome: inactive

3 entries from above, limited to “nuclei per well, duplicate mean”:
VNN3P = 4866
PXN = 6110
HSPBAP1 = 5744

Continued:
With PRRG1, how do the results read?
migration robust z-score: 0.32; migration class with cell-count check: migration z between -2 and 2; enough cells; nuclei per well, duplicate mean: 5958; Outcome: inactive

For PHF2, how do the results read?
migration robust z-score: 1.24; migration class with cell-count check: migration z between -2 and 2; enough cells; nuclei per well, duplicate mean: 6281; Outcome: inactive

With PDCD1LG2, how do the results read?
migration robust z-score: -0.12; migration class with cell-count check: migration z between -2 and 2; enough cells; nuclei per well, duplicate mean: 5743; Outcome: inactive

With TRIM34, what does the deposit list?
migration robust z-score: -0.88; migration class with cell-count check: migration z between -2 and 2; enough cells; nuclei per well, duplicate mean: 5432; Outcome: inactive

With SEZ6L2, how do the results read?
migration robust z-score: -0.62; migration class with cell-count check: migration z between -2 and 2; enough cells; nuclei per well, duplicate mean: 5840; Outcome: inactive

Which result is listed for EMC9?
migration robust z-score: -0.54; migration class with cell-count check: migration z between -2 and 2; enough cells; nuclei per well, duplicate mean: 5348; Outcome: inactive

What did the screen give for COPS4?
migration robust z-score: 1.38; migration class with cell-count check: migration z between -2 and 2; enough cells; nuclei per well, duplicate mean: 5590; Outcome: inactive

What did the screen give for DENND1A?
migration robust z-score: 0.28; migration class with cell-count check: migration z between -2 and 2; enough cells; nuclei per well, duplicate mean: 5212; Outcome: inactive

What did the screen give for SFTPA2B (retired record)?
migration robust z-score: 0.42; migration class with cell-count check: migration z between -2 and 2; enough cells; nuclei per well, duplicate mean: 5592; Outcome: inactive

What is on record for RAG1?
migration robust z-score: -0.36; migration class with cell-count check: migration z between -2 and 2; enough cells; nuclei per well, duplicate mean: 5194; Outcome: inactive

What is on record for PTPN22?
migration robust z-score: -0.44; migration class with cell-count check: migration z between -2 and 2; enough cells; nuclei per well, duplicate mean: 5368; Outcome: inactive
